The values below come from publication PMC7948449.

Chains of the proteins cited; added tags and fusions are not shown.
UniProt Q9CVD2: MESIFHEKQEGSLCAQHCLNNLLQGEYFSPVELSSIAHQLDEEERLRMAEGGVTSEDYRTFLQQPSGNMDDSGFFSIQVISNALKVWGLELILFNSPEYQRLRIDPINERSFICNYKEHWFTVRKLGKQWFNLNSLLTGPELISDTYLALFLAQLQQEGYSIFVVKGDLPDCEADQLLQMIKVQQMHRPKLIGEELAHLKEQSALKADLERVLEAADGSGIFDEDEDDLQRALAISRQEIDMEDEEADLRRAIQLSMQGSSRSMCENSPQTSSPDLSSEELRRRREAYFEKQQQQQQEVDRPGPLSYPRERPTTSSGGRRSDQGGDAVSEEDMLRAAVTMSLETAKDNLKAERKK

No constants are given. Whether binding was seen depends on the method and setting. Binding seen in cells or lysates may run through a third protein. Some results given as binding are weak or reduced against the parent protein; the word gives no strength.

The assay concerns the target DNAJA1 (endogenous, mouse P03 cells) (mouse (endogenous in P03)) (UniProt P63037). In words: co-IP; P03 cells treated with different concentrations of GY1-22 (or DMSO) for 24 h; lysate incubated overnight at 4 °C with anti-DNAJA1 antibody on protein A/G agarose; Western blot for mutp53, ataxin-3 and DNAJA1. A general note: Immunoblotting shows a protein as a band on a membrane.

Regarding “ataxin-3 (endogenous, mouse P03 cells) (from UniProt Q9CVD2 1-355)”, the binding entry is given as “binds”.
